From the supplement of paper PMC8728848
This is one part of the list.

Legend:
Experiment in all cases: glycan array binding signal (z-score within array); higher = stronger binding
Details in all cases: glycan notation: IUPAC condensed, linker removed
[1] = molecular target: Gal(b1-4)GlcNAc(b1-3)Gal(b1-4)GlcNAc(b1-6)[Gal(b1-3)]GalNAc
Outline: (§1)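 Glycan array binding is given as a within-array Z-score, which can be read as non-binding when negative. The arrays, 3228 of them, came from the Consortium for Functional Glycomics database and were retained only where the protein sequence was available. Z-scores were averaged across arrays of the same protein sequence at different concentrations or buffers and across linkers.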

[2] = molecular target: Gal(b1-4)GlcNAc(b1-3)Gal(b1-4)[Fuc(a1-3)]GlcNAc(b1-3)Gal(b1-4)[Fuc(a1-3)]GlcNAc
Outline: as §1

[3] = molecular target: Gal(b1-4)GlcNAc(b1-3)GalNAc
Outline: as §1

[4] = molecular target: Gal(b1-4)GlcNAc(b1-3)[Fuc(a1-3)GlcNAc(b1-6)]Gal(b1-4)Glc
Outline: as §1

[5] = molecular target: Gal(b1-4)GlcNAc(b1-3)[Gal(b1-4)GlcNAc(b1-6)]Gal(b1-4)GlcNAc
Outline: as §1

[6] = molecular target: Gal(b1-4)GlcNAc(b1-3)[GlcNAc(b1-6)]Gal(b1-4)GlcNAc
Outline: as §1

[7] = molecular target: Gal(b1-4)GlcNAc(b1-6)Gal(b1-4)GlcNAc
Outline: as §1

[8] = molecular target: Gal(b1-4)GlcNAc(b1-6)GalNAc
Outline: as §1

[9] = molecular target: Gal(b1-4)GlcNAc(b1-6)[Gal(b1-3)]GalNAc
Outline: as §1

[10] = molecular target: Gal(b1-4)GlcNAc(b1-6)[Gal(b1-4)GlcNAc(b1-3)]GalNAc
Outline: as §1

[11] = molecular target: Gal(b1-4)GlcNAc6P
Outline: as §1

[12] = molecular target: Gal(b1-6)Gal
Outline: as §1

[13] = molecular target: Gal3S(b1-3)GalNAc
Outline: as §1

[14] = molecular target: Gal3S(b1-3)GlcNAc
Outline: as §1

[15] = molecular target: Gal3S(b1-3)[Fuc(a1-4)]GlcNAc
Outline: as §1

[16] = molecular target: Gal3S(b1-4)Glc
Outline: as §1

[17] = molecular target: Gal3S(b1-4)Glc6S
Outline: as §1

[18] = molecular target: Gal3S(b1-4)GlcNAc
Outline: as §1

[19] = molecular target: Gal3S(b1-4)[Fuc(a1-3)]Glc6S
Outline: as §1

[20] = molecular target: Gal3S(b1-4)[Fuc(a1-3)]GlcNAc
Outline: as §1

[21] = molecular target: Gal3S(b1-4)[Fuc(a1-3)]GlcNAc6S
Outline: as §1

[22] = molecular target: Gal3S4S(b1-4)GlcNAc
Outline: as §1

[23] = molecular target: Gal3S6S(b1-4)GlcNAc
Outline: as §1

[24] = molecular target: Gal3S6S(b1-4)GlcNAc6S
Outline: as §1

[25] = molecular target: Gal4S(b1-4)GlcNAc
Outline: as §1

[26] = molecular target: Gal4S6S(b1-4)GlcNAc
Outline: as §1

[27] = molecular target: Gal6P(b1-4)GlcNAc
Outline: as §1

[28] = molecular target: Gal6S(b1-3)GlcNAc
Outline: as §1

[29] = molecular target: Gal6S(b1-3)GlcNAc6S
Outline: as §1

[30] = molecular target: Gal6S(b1-4)Glc
Outline: as §1

[31] = molecular target: Gal6S(b1-4)Glc6S
Outline: as §1

[32] = molecular target: Gal6S(b1-4)GlcNAc
Outline: as §1

[33] = molecular target: Gal6S(b1-4)GlcNAc6S
Outline: as §1

[34] = molecular target: GalNAc(a1-3)Gal
Outline: as §1

[35] = molecular target: GalNAc(a1-3)GalNAc
Outline: as §1

[36] = molecular target: GalNAc(a1-3)GalNAc(b1-3)Gal(a1-4)Gal(b1-4)Glc
Outline: as §1

[37] = molecular target: GalNAc(a1-3)GalNAc(b1-3)Gal(a1-4)Gal(b1-4)GlcNAc
Outline: as §1

[38] = molecular target: GalNAc(b1-3)Gal
Outline: as §1

[39] = molecular target: GalNAc(b1-3)Gal(a1-4)Gal(b1-4)GlcNAc
Outline: as §1

[40] = molecular target: GalNAc(b1-3)Gal(a1-4)Gal(b1-4)GlcNAc(b1-3)Gal(b1-4)Glc
Outline: as §1

[41] = molecular target: GalNAc(b1-3)Gal(a1-6)Gal(b1-4)Glc
Outline: as §1

[42] = molecular target: GalNAc(b1-3)GalNAc
Outline: as §1

[43] = molecular target: GalNAc(b1-3)GlcNAc
Outline: as §1

[44] = molecular target: GalNAc(b1-4)Gal(b1-4)Glc
Outline: as §1

[45] = molecular target: GalNAc(b1-4)GlcNAc
Outline: as §1

B1: FimA-N2 (Actinomyces oris) (protein)
chain: MHHHHHHSSGVDLGTENLYFQSNAWIYDVNVYPKNEAIDVDKTIQAQKLNGYGVGSLIKFPVESTAPTLDAKSFYKYFQLKDTLDERLSEVTATDVSLEGTPLQPTDYKVETKQQTVTVTFTAEGLKKIKAAPGKKVSAVFQGKVTKAGNGAITNRAQVISDTLYAEQPPTPETPPTDPENPPTSDEVISRWGDLSIKKVDTHQQGQTKA
Question: Which results are given for B1?
Answer: glycan array binding signal (z-score) [1]: 0.785; glycan array binding signal (z-score) [2]: 1.91; glycan array binding signal (z-score) [3]: -0.038; glycan array binding signal (z-score) [4]: -0.443; glycan array binding signal (z-score) [5]: -0.505; glycan array binding signal (z-score) [6]: -0.725; glycan array binding signal (z-score) [7]: -0.5; glycan array binding signal (z-score) [8]: -0.06; glycan array binding signal (z-score) [9]: -0.116; glycan array binding signal (z-score) [10]: 0.181; glycan array binding signal (z-score) [11]: 0.958; glycan array binding signal (z-score) [12]: -1.05; glycan array binding signal (z-score) [13]: 0.907; glycan array binding signal (z-score) [14]: 0.697; glycan array binding signal (z-score) [15]: 0.427; glycan array binding signal (z-score) [16]: 0.216; glycan array binding signal (z-score) [17]: 0.583; glycan array binding signal (z-score) [18]: 2.69; glycan array binding signal (z-score) [19]: 3.08; glycan array binding signal (z-score) [20]: 1.28; glycan array binding signal (z-score) [21]: 0.518; glycan array binding signal (z-score) [22]: -0.611; glycan array binding signal (z-score) [23]: 0.796; glycan array binding signal (z-score) [24]: 0.502; glycan array binding signal (z-score) [25]: 3.9; glycan array binding signal (z-score) [26]: 0.235; glycan array binding signal (z-score) [27]: -0.517; glycan array binding signal (z-score) [28]: -0.866; glycan array binding signal (z-score) [29]: -0.204; glycan array binding signal (z-score) [30]: 1.79; glycan array binding signal (z-score) [31]: -0.257; glycan array binding signal (z-score) [32]: -0.518; glycan array binding signal (z-score) [33]: -0.917; glycan array binding signal (z-score) [34]: 0.771; glycan array binding signal (z-score) [35]: 0.547; glycan array binding signal (z-score) [36]: -0.857; glycan array binding signal (z-score) [37]: -0.239; glycan array binding signal (z-score) [38]: 2.41; glycan array binding signal (z-score) [39]: 2.19; glycan array binding signal (z-score) [40]: 1.53; glycan array binding signal (z-score) [41]: 0.567; glycan array binding signal (z-score) [42]: -1.14; glycan array binding signal (z-score) [43]: -0.555; glycan array binding signal (z-score) [44]: 0.367; glycan array binding signal (z-score) [45]: 1.21
